# Assay results taken from article PMC7819943, “Rice protein-binding microarrays: a tool to detect cis-acting elements near promoter regions in rice”.
# By UniProt entry, the sequences of proteins in these tests, tags left out.
# UniProt Q0JBA9, entry or part of it: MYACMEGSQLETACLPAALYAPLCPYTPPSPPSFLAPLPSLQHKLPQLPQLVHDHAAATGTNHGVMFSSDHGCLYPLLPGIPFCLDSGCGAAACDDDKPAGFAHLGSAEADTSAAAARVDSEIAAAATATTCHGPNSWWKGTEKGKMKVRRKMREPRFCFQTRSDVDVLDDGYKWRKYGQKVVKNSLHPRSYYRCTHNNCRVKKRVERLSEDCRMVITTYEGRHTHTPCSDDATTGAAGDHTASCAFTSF
# The list shows a part of the results.
# Target: OsWRKY34 (Oryza sativa, UniProt Q0JBA9 1-250)
# Assay: protein-binding microarray (RPBM); PBS, 2% BSA, 51.3 ng/ul salmon testes DNA, 50 uM zinc acetate, 200 nM TF, 25 C, 1 h; high values mean tight binding
# Conditions: protein: recombinant; tags: N-terminal polyhistidine and DsRed monomer fusion (pET32a); label: CyDye5-dUTP incorporated in the synthesized complementary strand; 3' TTTTT single-stranded linker to array surface; dsDNA, one strand shown
# In short: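 Binding signal here means per-feature fluorescence intensity in arbitrary units. The values were read on an Axon 4000B scanner after a custom Agilent array, double-stranded by primer extension with Cy5-dUTP, was incubated with 200 nM protein at 25 °C for 1 h in PBS with 2% BSA, salmon testes DNA and 50 µM zinc acetate, then washed. The proteins were transcription factors with an N-terminal polyhistidine tag and DsRed, expressed in E. coli BL21-CodonPlus and purified on Ni–NTA.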
row,Sequence,binding signal
1,ACGTAACCCGCGATCTGACCGGTCTGTGACCGGTCACACACGGAGTCACCTAGTGCAG,8250 fluorescence intensity (a.u.)
2,TTAATGCCTCCTCCTTCCATTTCCACCCGCTTCCTCTCCTCGGAGTCACCTAGTGCAG,8700 fluorescence intensity (a.u.)
3,ATTATTTCTTGATTTTTTGGTTAAGGTGGTTGTGTCTTATCGGAGTCACCTAGTGCAG,8160 fluorescence intensity (a.u.)
4,GGGATTTTTGGTATTTTTCACAAGCAAGTACTTCATCTTTCGGAGTCACCTAGTGCAG,8160 fluorescence intensity (a.u.)
5,CGCATCAAACCATATCTGCATCGACGTGCGGCGCACACCGCGGAGTCACCTAGTGCAG,8810 fluorescence intensity (a.u.)
6,TTCGACCATGCTGCACATATATGTTCATGAACGAATGCTTCGGAGTCACCTAGTGCAG,8900 fluorescence intensity (a.u.)
7,TCCGACGCTTCTCCGCTCCGCTGTCAGTTTGAACTAAAAGCGGAGTCACCTAGTGCAG,10000 fluorescence intensity (a.u.)
8,ATTCGATGCGACTCAATGTGTGTGTTTTGTGCGATCTATTCGGAGTCACCTAGTGCAG,8970 fluorescence intensity (a.u.)
9,AGAATCGATGTTTGGTTGCTAGTATGGGATTTCTGAATAACGGAGTCACCTAGTGCAG,8930 fluorescence intensity (a.u.)
10,AAAGCTACTCCACTCCATACCACTCACCGCCAACCCGTACCGGAGTCACCTAGTGCAG,9580 fluorescence intensity (a.u.)
11,TGGGCGGCAGGGGCTATTTCTGCAATTTTTTTGGTCGATACGGAGTCACCTAGTGCAG,9310 fluorescence intensity (a.u.)
12,TTTAATGTATGGTGCCGTTGACTTTTTTTATCAATATTTGCGGAGTCACCTAGTGCAG,41200 fluorescence intensity (a.u.)
13,TAATTTTTTTTCGTCCACATTTAATGCTCCATGCATATGTCGGAGTCACCTAGTGCAG,8630 fluorescence intensity (a.u.)
14,TTCCATGAATATAGAAATTATTGCTGTTTTTTCCCGGTTGCGGAGTCACCTAGTGCAG,8340 fluorescence intensity (a.u.)
15,TTTGTCAACTCCATCCTTATTTTTTGTTAGCACATTTTTCCGGAGTCACCTAGTGCAG,10600 fluorescence intensity (a.u.)
16,ATTTGTACATATATTTTTTCCCCTTTCTCGTACATATCTCCGGAGTCACCTAGTGCAG,13400 fluorescence intensity (a.u.)
17,AACTTTATTTTTGGCAACTTTTTCATATGAGTTTATTTAACGGAGTCACCTAGTGCAG,11900 fluorescence intensity (a.u.)
18,CATATGACTCCCTCGATGGTTTTTAGTGTGGTTTTCGCTACGGAGTCACCTAGTGCAG,10900 fluorescence intensity (a.u.)
19,GACCTCGCGAACAGCCCACACGTACGTTACTGACGCCATACGGAGTCACCTAGTGCAG,8770 fluorescence intensity (a.u.)
20,ATGTATATTGTGCTGCAGTTTCTCCCTTTCATTTTTATGTCGGAGTCACCTAGTGCAG,9140 fluorescence intensity (a.u.)
21,TAAATTAAATGTTTGAGTTATATCTTGTTTGTATTTTTAACGGAGTCACCTAGTGCAG,8410 fluorescence intensity (a.u.)

row,Sequence,binding signal
1,AGCCAATTAGTTTGCTCTCTAGCTAGCTTATTATTGTTTACGGAGTCACCTAGTGCAG,8170 fluorescence intensity (a.u.)
2,GAGAGTATTATAGATATTGGTGTTTGTGTACGGGTGATACCGGAGTCACCTAGTGCAG,8040 fluorescence intensity (a.u.)
3,ATATGTGGTTGGTTCCTACCGCTTACTGGTTATGGTTGGTCGGAGTCACCTAGTGCAG,8380 fluorescence intensity (a.u.)
4,ACGTGTCGTTGACTTTTTATCACACGTTTAGCCATTCGTCCGGAGTCACCTAGTGCAG,30200 fluorescence intensity (a.u.)
5,GTGTGTGGAGGAGTTGAGGAAGAAGAAGGGTTAGGGACACCGGAGTCACCTAGTGCAG,8940 fluorescence intensity (a.u.)
6,GCCGCTACATTGCACACATCAACACTAGCTTTGCATCCGTCGGAGTCACCTAGTGCAG,9030 fluorescence intensity (a.u.)
7,TTTCTTTCCTTTTCCTTTTTTATTCTCGTCTAGTATTATTCGGAGTCACCTAGTGCAG,8230 fluorescence intensity (a.u.)
8,ACCTCATCCTCATTCGTCACCACTAGTCCTCGCTGTTGTTCGGAGTCACCTAGTGCAG,12000 fluorescence intensity (a.u.)
9,TGCCAGTTTCTTGTCCAATCGAGGAGCTCTGTACCAATAACGGAGTCACCTAGTGCAG,8740 fluorescence intensity (a.u.)
10,CTGAGCCATACACGAGCCACATATCATATCAGCTGGACGACGGAGTCACCTAGTGCAG,9380 fluorescence intensity (a.u.)
11,GCATCGGCTTCTCTCCTCCAACTCCGGCGGGTTAGGGTTTCGGAGTCACCTAGTGCAG,8500 fluorescence intensity (a.u.)
12,GACACATTACACCACACACGTAGCAAAACACATCGTACGTCGGAGTCACCTAGTGCAG,8430 fluorescence intensity (a.u.)
13,CTCGTCTACTCTTGCATACACAACACACAACTACTCCCTACGGAGTCACCTAGTGCAG,8900 fluorescence intensity (a.u.)
14,GTTGCAAGTTGCCTCGCCGCACGGGCTCCCGTCACGACTCCGGAGTCACCTAGTGCAG,9580 fluorescence intensity (a.u.)
15,ACGTCTTACCCCACACGACCAAATTATGGCCTAATCACACCGGAGTCACCTAGTGCAG,8100 fluorescence intensity (a.u.)
16,TCCTCCAAATCCCAACCCACCTCACCGATCCCATCTCAATCGGAGTCACCTAGTGCAG,8040 fluorescence intensity (a.u.)
17,TAGGCTGTGTTTAGTTCATCGCAAAGTTTAGATTTTGGTTCGGAGTCACCTAGTGCAG,11200 fluorescence intensity (a.u.)
18,AACTCATGCTTTAGTACGTTCTCTGTTCTTTTTTGTTATCCGGAGTCACCTAGTGCAG,10800 fluorescence intensity (a.u.)
19,CCCGTCGCCAAGCGCCACCACCACCCCTTCGCGCCGCCGCCGGAGTCACCTAGTGCAG,8060 fluorescence intensity (a.u.)
20,CTCCGGCCTTTTAATTGGTGTTCTTGTTGGGCCGAAATGTCGGAGTCACCTAGTGCAG,11900 fluorescence intensity (a.u.)
21,TGTGGGTATGGGGATGATTTTGTACCCGTGATAGGTGTGGCGGAGTCACCTAGTGCAG,13100 fluorescence intensity (a.u.)

row,Sequence,binding signal
1,GCAATACACCTGATTTGATACTTCTTCCGATATAATACTCCGGAGTCACCTAGTGCAG,8900 fluorescence intensity (a.u.)
2,ACAAGCTGAGATGGTTAATTGTTTATGTAGATCATTAGTTCGGAGTCACCTAGTGCAG,8640 fluorescence intensity (a.u.)
3,CCCACATACACGTCATGCCAATGCCACTCTCGACGAGAAACGGAGTCACCTAGTGCAG,8820 fluorescence intensity (a.u.)
4,CCTGTTTGACCATATCGCTAGCCAACACTTGATATTTTACCGGAGTCACCTAGTGCAG,9610 fluorescence intensity (a.u.)
5,TCTGACTATTTCCGATCATTTTCATCACTAATCTCACACACGGAGTCACCTAGTGCAG,8070 fluorescence intensity (a.u.)
6,CCACCGATTCCTCTCCACCGCTCTTTCCGCCCGCGCGATGCGGAGTCACCTAGTGCAG,10600 fluorescence intensity (a.u.)
7,GCCGCCGCCGCCGCCGCACCGCCACCGCTCTCTCCCGCCGCGGAGTCACCTAGTGCAG,8940 fluorescence intensity (a.u.)
8,TCTAAGATATTATTTTTACGTGTCGTCCCATTACCGATATCGGAGTCACCTAGTGCAG,9500 fluorescence intensity (a.u.)
9,GTTGCGTGGACATGGTGGTGGGTAGTGATGGTGGCAAACGCGGAGTCACCTAGTGCAG,11400 fluorescence intensity (a.u.)
10,CAGCTCATCAAGGTCAAATCAAATCATTCACGTCGTAACGCGGAGTCACCTAGTGCAG,8100 fluorescence intensity (a.u.)
11,TTGTGGAGTGTTCTTTCTGTAGTTGTTGCCTGCACTACACCGGAGTCACCTAGTGCAG,13000 fluorescence intensity (a.u.)
12,CCCCTGTCTCTGTCTCTGTCTCTGCCGTTTGTATAGTAGCCGGAGTCACCTAGTGCAG,9300 fluorescence intensity (a.u.)
13,TCTCTCTCGAGTTCGCCTCATAGCCAACCACCCTATAAAACGGAGTCACCTAGTGCAG,8650 fluorescence intensity (a.u.)
14,AGGGGATACTTTGTTTTGATTGGATTTGGAACTCGATGACCGGAGTCACCTAGTGCAG,8130 fluorescence intensity (a.u.)
15,ACCAAATAGATTTCCTGCACTGGAATCATTCTGCACAATACGGAGTCACCTAGTGCAG,8140 fluorescence intensity (a.u.)
16,TTGCCACCGATACCCCTACATGCCTCTCCTCTACCATTTCCGGAGTCACCTAGTGCAG,8210 fluorescence intensity (a.u.)
17,ATTTTATTTGTGTTGTGATTTCACTTTCCCTGTTTTTGTGCGGAGTCACCTAGTGCAG,10800 fluorescence intensity (a.u.)
18,GTGGTTTGTGATGAAATGTAGTAATGTTCTTGTAATTTGTCGGAGTCACCTAGTGCAG,8370 fluorescence intensity (a.u.)
19,GGCCCAGTTTAGTCTAGAACTTTTCTTTTTTCTTTTTTTTCGGAGTCACCTAGTGCAG,11200 fluorescence intensity (a.u.)
20,TTTCCGTTTGCACTTTGCAGCCAGCACAGCCGACGGCGATCGGAGTCACCTAGTGCAG,8980 fluorescence intensity (a.u.)
21,ATACATCTTCCCAAAACTTTTTTAATTTTTTTCAAAACTACGGAGTCACCTAGTGCAG,9280 fluorescence intensity (a.u.)

# Looked up above:
# binding signal with ATTATTTCTTGATTTTTTGGTTAAGGTGGTTGTGTCTTATCGGAGTCACCTAGTGCAG reads 8160 fluorescence intensity (a.u.)
# binding signal with TGTGGGTATGGGGATGATTTTGTACCCGTGATAGGTGTGGCGGAGTCACCTAGTGCAG reads 13100 fluorescence intensity (a.u.)
# binding signal with TAATTTTTTTTCGTCCACATTTAATGCTCCATGCATATGTCGGAGTCACCTAGTGCAG reads 8630 fluorescence intensity (a.u.)
# binding signal with ATGTATATTGTGCTGCAGTTTCTCCCTTTCATTTTTATGTCGGAGTCACCTAGTGCAG reads 9140 fluorescence intensity (a.u.)
# binding signal with CTCGTCTACTCTTGCATACACAACACACAACTACTCCCTACGGAGTCACCTAGTGCAG reads 8900 fluorescence intensity (a.u.)
# binding signal with AGAATCGATGTTTGGTTGCTAGTATGGGATTTCTGAATAACGGAGTCACCTAGTGCAG reads 8930 fluorescence intensity (a.u.)
# binding signal with ATATGTGGTTGGTTCCTACCGCTTACTGGTTATGGTTGGTCGGAGTCACCTAGTGCAG reads 8380 fluorescence intensity (a.u.)

# (listing goes on)

row,Sequence,binding signal
1,GATTTGGGTAATTTATATAGATGCAATCCACTGTTTGATTCGGAGTCACCTAGTGCAG,8560 fluorescence intensity (a.u.)
2,TCCACTTTCTTTAGCCGGTCAAGGGGTTCAAGCAGCATCTCGGAGTCACCTAGTGCAG,8880 fluorescence intensity (a.u.)
3,CCGCTATCTCCCGCTATAGCTGTTTGGGAAGGGTTCTAGCCGGAGTCACCTAGTGCAG,8110 fluorescence intensity (a.u.)
4,TCCTTCAGTGACACAGTTTCCATATATCCCCATCATGCAACGGAGTCACCTAGTGCAG,9550 fluorescence intensity (a.u.)
5,CCCACCACCACCACCCAACCCCACCGCGCGCGCGCTCTCCCGGAGTCACCTAGTGCAG,8380 fluorescence intensity (a.u.)
6,ACTTTTTCCGAACCAAAATGGACTTCTTCCTTACGGTTACCGGAGTCACCTAGTGCAG,8390 fluorescence intensity (a.u.)
7,AGCCACACTTCGCCACCGTTTCTTTTTTTTCAAACGTGACCGGAGTCACCTAGTGCAG,10800 fluorescence intensity (a.u.)
8,TAAAAATCGTTTCAGTTGCTGGTGCTTTATCAAAGTTTTTCGGAGTCACCTAGTGCAG,12000 fluorescence intensity (a.u.)
9,ACCAATTGTTTTTTGTATTGATTATGTTATTGACTGATACCGGAGTCACCTAGTGCAG,9430 fluorescence intensity (a.u.)
10,GATATGTAGCTCGCTGTTCTTCTCTCTCTTCATTTATCTGCGGAGTCACCTAGTGCAG,10900 fluorescence intensity (a.u.)
11,CAACCCTGACGTCACGTAAGCTTTTGCCAATTCCGCCAACCGGAGTCACCTAGTGCAG,8110 fluorescence intensity (a.u.)
12,CGCCGTCGTTCGTCCAGCTGCTTCCGCCGCATCCATCCTGCGGAGTCACCTAGTGCAG,10500 fluorescence intensity (a.u.)
13,GATGGAGATATTGTGTGCGTAAAGGATGCGGAGTTGATTTCGGAGTCACCTAGTGCAG,8110 fluorescence intensity (a.u.)
14,CCTGGGCTGCCTGTTCATCATCACGCGTTTGATGTTCACTCGGAGTCACCTAGTGCAG,9370 fluorescence intensity (a.u.)
15,CAGCCACCTCCTCCTCTTCTTCCCCAACTTTCTGCTTGATCGGAGTCACCTAGTGCAG,9300 fluorescence intensity (a.u.)
16,AGCCACCTCCCACCACGCCTTGGCCTTTCCATTACCTACGCGGAGTCACCTAGTGCAG,10200 fluorescence intensity (a.u.)
17,ACTCCGTTTTTCGTAAATACTGTTTAGGGTTGGGAACTGGCGGAGTCACCTAGTGCAG,8170 fluorescence intensity (a.u.)
18,TCCATTCCTTCTGGCATTGGCAACATTCTTCCCCAGATCACGGAGTCACCTAGTGCAG,8530 fluorescence intensity (a.u.)
19,AATATAATGAAATTTCACAGAGGAGGGACTGGGCTTTATACGGAGTCACCTAGTGCAG,9910 fluorescence intensity (a.u.)
20,TTCCCCATCCCCAGCTGCACCGACGCCACCGCCTGTATGTCGGAGTCACCTAGTGCAG,9360 fluorescence intensity (a.u.)
21,ATGTCTCCCAAGTATTTTACTCTGTTCGTCCCATTTTAAGCGGAGTCACCTAGTGCAG,10400 fluorescence intensity (a.u.)
